From PMC4701952
Results are given in words; binding and its absence hold for the method and conditions named. Some entries that bind do so weakly or less than the wild type.

Target: T1, SEP3 full length wild type (A. thaliana), O22456
T1 chain: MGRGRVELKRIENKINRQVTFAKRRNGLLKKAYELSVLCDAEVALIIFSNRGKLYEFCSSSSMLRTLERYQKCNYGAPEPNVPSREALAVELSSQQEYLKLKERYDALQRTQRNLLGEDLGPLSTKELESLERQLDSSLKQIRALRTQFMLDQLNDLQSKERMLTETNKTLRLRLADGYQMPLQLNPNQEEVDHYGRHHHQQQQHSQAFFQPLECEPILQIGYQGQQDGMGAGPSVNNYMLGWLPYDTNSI
Test: native gel or EMSA; in vitro translated proteins (4 ul TnT mix, not purified) with 5-10 nM DY-682 labelled 121 bp SOC1 promoter DNA with two CArG boxes; complexes seen on DNA, assigned as putative dimer and tetramer
Details: remark: other sources report otherwise

B1: SEP3 full length wild type, O22456 1-251 (natural protein)
chain: MGRGRVELKRIENKINRQVTFAKRRNGLLKKAYELSVLCDAEVALIIFSNRGKLYEFCSSSSMLRTLERYQKCNYGAPEPNVPSREALAVELSSQQEYLKLKERYDALQRTQRNLLGEDLGPLSTKELESLERQLDSSLKQIRALRTQFMLDQLNDLQSKERMLTETNKTLRLRLADGYQMPLQLNPNQEEVDHYGRHHHQQQQHSQAFFQPLECEPILQIGYQGQQDGMGAGPSVNNYMLGWLPYDTNSI
  binding: binds
